Data: the supplement of paper PMC12067093, “Discovery and optimisation of a covalent ligand for TRIM25 and its application to targeted protein ubiquitination” (Chemical Science, 2025)
Some of the results follow.

The chains behind the UniProt entries cited, without tags or fusion partners. Where a name states a change or a piece, a line headed by the entry shows the natural chain unless it says otherwise.
UniProt Q06210: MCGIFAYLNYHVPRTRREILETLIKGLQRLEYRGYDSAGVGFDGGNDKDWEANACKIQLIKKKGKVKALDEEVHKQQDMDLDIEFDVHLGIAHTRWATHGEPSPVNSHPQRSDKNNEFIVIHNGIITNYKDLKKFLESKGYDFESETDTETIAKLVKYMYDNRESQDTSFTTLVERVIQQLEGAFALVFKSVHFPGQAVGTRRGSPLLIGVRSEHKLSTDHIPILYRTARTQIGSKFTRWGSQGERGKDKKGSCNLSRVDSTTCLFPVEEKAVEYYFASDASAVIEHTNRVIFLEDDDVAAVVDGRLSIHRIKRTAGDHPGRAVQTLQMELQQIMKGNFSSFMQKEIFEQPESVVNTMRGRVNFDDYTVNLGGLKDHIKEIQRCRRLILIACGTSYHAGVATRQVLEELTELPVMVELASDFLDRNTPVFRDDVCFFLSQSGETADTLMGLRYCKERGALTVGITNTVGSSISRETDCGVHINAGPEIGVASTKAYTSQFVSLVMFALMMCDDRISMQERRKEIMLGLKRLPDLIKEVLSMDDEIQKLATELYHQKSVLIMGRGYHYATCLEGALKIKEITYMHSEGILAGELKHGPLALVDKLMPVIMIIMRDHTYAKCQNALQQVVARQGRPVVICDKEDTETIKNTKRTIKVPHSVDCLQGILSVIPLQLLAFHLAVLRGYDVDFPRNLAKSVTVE
UniProt P51570: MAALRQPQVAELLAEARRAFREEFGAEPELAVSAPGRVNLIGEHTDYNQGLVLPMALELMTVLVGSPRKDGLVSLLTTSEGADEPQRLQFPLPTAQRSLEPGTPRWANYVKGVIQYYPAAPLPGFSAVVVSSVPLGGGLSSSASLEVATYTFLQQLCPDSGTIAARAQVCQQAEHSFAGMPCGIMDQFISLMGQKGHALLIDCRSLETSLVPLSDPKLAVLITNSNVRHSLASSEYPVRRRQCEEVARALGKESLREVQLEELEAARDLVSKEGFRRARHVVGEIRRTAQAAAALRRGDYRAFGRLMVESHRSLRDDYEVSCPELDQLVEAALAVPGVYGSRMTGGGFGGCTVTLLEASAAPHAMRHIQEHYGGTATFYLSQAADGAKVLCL
UniProt Q92538, whole entry, looked up: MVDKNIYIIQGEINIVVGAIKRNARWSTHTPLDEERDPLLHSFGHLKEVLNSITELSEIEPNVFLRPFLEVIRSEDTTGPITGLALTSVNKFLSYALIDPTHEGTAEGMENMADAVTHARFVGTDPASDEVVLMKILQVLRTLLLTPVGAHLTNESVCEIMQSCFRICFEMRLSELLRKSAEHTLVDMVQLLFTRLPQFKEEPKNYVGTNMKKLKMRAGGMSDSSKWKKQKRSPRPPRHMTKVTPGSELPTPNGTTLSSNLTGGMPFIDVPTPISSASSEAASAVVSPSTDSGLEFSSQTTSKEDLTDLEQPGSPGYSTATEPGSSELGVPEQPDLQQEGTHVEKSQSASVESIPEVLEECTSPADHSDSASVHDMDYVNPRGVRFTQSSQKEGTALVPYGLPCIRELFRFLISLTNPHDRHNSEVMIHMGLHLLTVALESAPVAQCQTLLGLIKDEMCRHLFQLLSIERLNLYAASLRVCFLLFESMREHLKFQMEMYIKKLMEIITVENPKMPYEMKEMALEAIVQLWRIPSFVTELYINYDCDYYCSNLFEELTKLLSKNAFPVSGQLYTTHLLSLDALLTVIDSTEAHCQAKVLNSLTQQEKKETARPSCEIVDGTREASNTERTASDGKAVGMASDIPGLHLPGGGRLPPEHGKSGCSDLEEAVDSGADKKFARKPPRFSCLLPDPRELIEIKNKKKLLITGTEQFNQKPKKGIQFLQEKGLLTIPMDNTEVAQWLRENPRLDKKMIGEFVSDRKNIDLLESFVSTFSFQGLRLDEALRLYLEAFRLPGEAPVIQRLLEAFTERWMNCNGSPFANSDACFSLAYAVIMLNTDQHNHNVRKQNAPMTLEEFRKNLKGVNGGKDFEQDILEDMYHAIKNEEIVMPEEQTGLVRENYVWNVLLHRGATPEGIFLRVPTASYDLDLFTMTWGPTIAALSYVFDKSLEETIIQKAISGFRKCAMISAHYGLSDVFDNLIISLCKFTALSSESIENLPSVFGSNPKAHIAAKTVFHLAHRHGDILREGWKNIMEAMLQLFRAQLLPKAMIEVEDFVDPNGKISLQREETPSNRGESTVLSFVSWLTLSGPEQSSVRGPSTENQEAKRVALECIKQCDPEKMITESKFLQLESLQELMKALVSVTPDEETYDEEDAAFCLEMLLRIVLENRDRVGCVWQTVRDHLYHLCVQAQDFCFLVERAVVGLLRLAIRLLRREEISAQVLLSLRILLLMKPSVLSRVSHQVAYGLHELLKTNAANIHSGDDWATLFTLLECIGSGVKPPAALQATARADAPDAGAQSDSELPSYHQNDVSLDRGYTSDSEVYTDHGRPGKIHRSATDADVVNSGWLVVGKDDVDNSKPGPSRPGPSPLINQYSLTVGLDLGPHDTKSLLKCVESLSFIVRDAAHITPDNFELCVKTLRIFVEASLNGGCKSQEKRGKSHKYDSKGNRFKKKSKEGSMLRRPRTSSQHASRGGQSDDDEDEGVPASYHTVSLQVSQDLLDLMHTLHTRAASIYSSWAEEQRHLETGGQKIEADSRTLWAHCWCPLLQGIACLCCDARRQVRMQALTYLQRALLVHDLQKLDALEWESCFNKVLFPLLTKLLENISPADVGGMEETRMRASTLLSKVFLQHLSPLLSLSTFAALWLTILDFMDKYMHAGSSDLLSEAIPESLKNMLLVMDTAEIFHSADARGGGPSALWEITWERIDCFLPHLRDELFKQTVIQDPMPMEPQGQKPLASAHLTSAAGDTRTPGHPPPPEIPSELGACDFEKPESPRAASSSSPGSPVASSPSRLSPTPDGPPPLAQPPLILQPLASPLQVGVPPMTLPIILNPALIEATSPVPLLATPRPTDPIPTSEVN
UniProt Q8WUU5: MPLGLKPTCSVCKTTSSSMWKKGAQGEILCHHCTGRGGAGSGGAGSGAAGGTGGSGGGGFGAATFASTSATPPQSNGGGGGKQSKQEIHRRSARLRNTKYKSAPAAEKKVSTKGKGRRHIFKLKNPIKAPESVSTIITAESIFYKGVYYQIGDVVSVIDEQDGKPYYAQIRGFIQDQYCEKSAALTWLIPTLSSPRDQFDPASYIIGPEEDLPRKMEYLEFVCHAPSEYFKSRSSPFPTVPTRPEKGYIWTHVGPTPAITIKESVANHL
UniProt Q99684: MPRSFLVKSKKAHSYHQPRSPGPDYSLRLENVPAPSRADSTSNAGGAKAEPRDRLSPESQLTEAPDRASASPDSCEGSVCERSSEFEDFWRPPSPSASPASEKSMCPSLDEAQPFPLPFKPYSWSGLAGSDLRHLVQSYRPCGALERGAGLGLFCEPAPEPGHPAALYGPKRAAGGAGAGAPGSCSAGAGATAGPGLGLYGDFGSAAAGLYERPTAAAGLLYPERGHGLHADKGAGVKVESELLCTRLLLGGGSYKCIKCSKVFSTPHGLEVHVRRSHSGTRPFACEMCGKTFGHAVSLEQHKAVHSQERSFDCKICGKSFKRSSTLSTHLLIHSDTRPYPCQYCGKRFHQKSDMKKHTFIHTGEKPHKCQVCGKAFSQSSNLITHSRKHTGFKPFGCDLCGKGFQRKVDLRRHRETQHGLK
UniProt Q04446: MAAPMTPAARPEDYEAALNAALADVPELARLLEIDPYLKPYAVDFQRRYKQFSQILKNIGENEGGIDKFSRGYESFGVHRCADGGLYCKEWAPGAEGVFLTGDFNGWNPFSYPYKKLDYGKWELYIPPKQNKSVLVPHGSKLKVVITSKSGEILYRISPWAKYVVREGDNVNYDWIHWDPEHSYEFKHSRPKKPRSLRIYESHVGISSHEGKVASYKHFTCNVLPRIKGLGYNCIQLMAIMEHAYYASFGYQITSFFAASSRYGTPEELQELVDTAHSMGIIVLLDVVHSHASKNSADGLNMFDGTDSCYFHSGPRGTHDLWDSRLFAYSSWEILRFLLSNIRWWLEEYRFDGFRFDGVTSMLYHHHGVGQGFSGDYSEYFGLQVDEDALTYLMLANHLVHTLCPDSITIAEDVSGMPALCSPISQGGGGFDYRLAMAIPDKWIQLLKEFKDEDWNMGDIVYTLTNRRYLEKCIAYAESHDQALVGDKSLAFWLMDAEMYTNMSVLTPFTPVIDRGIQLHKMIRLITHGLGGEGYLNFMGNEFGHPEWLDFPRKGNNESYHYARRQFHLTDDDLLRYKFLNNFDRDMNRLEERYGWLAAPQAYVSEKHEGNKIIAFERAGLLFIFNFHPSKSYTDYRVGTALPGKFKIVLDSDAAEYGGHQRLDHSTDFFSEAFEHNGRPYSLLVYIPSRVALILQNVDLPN
UniProt P16383: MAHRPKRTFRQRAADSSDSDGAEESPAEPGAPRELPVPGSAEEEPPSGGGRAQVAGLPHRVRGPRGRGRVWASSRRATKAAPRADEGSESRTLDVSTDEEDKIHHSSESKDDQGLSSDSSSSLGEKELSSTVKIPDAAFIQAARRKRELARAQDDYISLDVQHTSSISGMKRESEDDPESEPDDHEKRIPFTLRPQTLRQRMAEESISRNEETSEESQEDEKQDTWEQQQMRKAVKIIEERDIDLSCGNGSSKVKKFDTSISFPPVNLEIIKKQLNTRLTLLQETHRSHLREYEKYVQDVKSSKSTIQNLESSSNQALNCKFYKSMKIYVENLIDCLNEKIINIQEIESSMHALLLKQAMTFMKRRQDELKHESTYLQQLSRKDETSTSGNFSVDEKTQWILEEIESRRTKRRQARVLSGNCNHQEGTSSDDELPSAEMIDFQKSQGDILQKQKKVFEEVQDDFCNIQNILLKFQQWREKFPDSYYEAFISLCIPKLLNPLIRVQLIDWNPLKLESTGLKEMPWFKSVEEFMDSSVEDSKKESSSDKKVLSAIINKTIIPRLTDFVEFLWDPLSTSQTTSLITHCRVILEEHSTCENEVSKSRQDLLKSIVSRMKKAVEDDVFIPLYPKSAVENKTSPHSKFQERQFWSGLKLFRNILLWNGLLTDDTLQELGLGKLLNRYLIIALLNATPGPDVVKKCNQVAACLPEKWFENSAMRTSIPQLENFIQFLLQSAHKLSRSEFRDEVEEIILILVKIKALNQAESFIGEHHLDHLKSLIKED
UniProt P41250: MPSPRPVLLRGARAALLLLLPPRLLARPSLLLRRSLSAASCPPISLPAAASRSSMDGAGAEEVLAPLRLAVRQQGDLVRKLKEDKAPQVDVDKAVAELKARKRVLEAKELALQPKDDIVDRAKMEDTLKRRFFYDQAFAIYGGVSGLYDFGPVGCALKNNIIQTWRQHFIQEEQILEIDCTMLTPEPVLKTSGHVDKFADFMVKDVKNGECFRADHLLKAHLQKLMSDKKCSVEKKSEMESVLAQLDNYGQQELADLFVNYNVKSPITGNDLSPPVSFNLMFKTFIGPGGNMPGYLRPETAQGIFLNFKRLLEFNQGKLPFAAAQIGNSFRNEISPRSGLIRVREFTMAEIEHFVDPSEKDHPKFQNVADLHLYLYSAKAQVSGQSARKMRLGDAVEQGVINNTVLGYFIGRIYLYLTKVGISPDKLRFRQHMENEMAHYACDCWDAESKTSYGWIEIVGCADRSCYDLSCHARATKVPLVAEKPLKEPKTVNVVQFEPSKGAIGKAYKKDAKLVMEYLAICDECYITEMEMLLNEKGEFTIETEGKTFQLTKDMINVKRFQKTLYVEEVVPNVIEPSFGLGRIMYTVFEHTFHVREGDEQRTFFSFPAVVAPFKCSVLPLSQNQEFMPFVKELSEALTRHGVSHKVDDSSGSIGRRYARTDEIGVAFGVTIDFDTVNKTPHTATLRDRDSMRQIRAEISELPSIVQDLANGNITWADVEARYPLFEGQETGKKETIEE
UniProt Q86YP4: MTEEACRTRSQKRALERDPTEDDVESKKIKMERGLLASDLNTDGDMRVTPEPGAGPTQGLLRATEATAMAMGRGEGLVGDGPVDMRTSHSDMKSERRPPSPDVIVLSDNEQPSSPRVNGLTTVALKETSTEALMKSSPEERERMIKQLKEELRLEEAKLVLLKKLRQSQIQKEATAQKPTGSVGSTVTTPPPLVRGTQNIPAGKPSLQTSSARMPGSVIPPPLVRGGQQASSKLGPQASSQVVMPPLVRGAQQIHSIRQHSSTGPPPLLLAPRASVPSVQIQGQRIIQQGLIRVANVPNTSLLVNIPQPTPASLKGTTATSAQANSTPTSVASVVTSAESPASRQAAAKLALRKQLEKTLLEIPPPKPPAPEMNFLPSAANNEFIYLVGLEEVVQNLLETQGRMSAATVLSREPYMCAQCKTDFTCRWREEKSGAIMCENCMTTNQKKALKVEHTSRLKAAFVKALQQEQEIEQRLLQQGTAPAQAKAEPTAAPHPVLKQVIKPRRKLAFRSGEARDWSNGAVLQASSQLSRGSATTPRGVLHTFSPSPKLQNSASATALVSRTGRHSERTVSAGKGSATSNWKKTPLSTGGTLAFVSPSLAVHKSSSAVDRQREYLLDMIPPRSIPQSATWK

Compound: CC1Cc2ccccc2N1C(=O)C1CCCN(C1)C(=O)CCl (mixture of isomers) [TRIM25 ligand 11 (diastereomer mixture)]
Experiment: probe-labelled cysteine peptide fold change vs DMSO (competition) (log2 fold change); higher = less target engagement (more negative = stronger competition)
Details: 10 µM; THP-1; incubation time: 4 h
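Further: competitive chemoproteomic profiling in live THP-1 cells with an iodoacetamide desthiobiotin (IA-DTB) probe, comparing probe-labelled peptide intensities in compound-treated cells against DMSO-treated controls.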

Target | probe-labelled cysteine peptide fold change
GEMIN5_Q8TEQ6_1477_SHFPGCLAQEMQQQAQELLQK (UniProt Q8TEQ6) | 0.113
GANAB_Q14697_423_DEADVLEVDQGFDDHNLPCDVIWLDIEHADGKR (UniProt Q14697) | 0.162
GHDC_Q8N2G8_377_VVGAYNQCPVVR (UniProt Q8N2G8) | -0.0419
GCN1_Q92616_648_VLQEALCVISGVPGLK (UniProt Q92616) | -0.107
GALNT1_Q10472_482_TDDLCLDVSK (UniProt Q10472) | 0.0604
GFPT1_Q06210_435_DDVCFFLSQSGETADTLMGLR (UniProt Q06210) | 0.373
GALK2_Q01415_407_LTGAGWGGCTVSMVPADKLPSFLANVHK (UniProt Q01415) | -0.454
GFM2_Q969S9_406_IYSGTIKPQLAIHNINGNCTER (UniProt Q969S9) | -0.0865
GALK1_P51570_351_MTGGGFGGCTVTLLEASAAPHAMR (UniProt P51570) | 0.0133
GCN1_Q92616_1527_AGSVELLGAMAYCAPK (UniProt Q92616) | 0.0862
GALK2_Q01415_379_DMYECSCPELDQLVDICR (UniProt Q01415) | -0.151
GBF1_Q92538_1414_DAAHITPDNFELCVK (UniProt Q92538) | 0.359
GALNT1_Q10472_214_GQVITFLDAHCECTVGWLEPLLAR (UniProt Q10472) | 0.16
GEMIN5_Q8TEQ6_1421_NEPEVEAEQPLCSSQSQCK (UniProt Q8TEQ6) | 0.263
GATAD1_Q8WUU5_223_KMEYLEFVCHAPSEYFK (UniProt Q8WUU5) | -0.245
GEMIN7_Q9H840_44_APLRPEVPEIQECPIAQESLESQEQR (UniProt Q9H840) | -0.0124
GAPDH_P04406_152+156_IISNASCTTNCLAPLAK (UniProt P04406) | -0.0357
GIT1_Q9Y2X7_674_HDSFVPCSEK (UniProt Q9Y2X7) | 0.0795
GATC_O43716_99_SDNVVEGNCADELLQNSHR (UniProt O43716) | -0.159

Target | probe-labelled cysteine peptide fold change
GFI1_Q99684_342+345_SSTLSTHLLIHSDTRPYPCQYCGK (UniProt Q99684) | 0.175
GCN1_Q92616_1781_FTPYVGPIIPCILK (UniProt Q92616) | 0.12
GALK1_P51570_243_RQCEEVAR (UniProt P51570) | -0.0598
GIGYF2_Q6Y7W6_573_RACDESFQPLGDIMK (UniProt Q6Y7W6) | 0.0526
GEN1_Q17RS7_634_SEVESELSAIPDGFENIPEQLSCESER (UniProt Q17RS7) | -0.0996
GBE1_Q04446_309_NSADGLNMFDGTDSCYFHSGPR (UniProt Q04446) | 0.049
GEMIN4_P57678_382_QVVSELAECVR (UniProt P57678) | 0.0692
GALNT1_Q10472_482_EIRTDDLCLDVSK (UniProt Q10472) | -0.206
GFI1_Q99684_398_HTGFKPFGCDLCGK (UniProt Q99684) | 0.0767
GBE1_Q04446_88_CADGGLYCK (UniProt Q04446) | 0.000309
GEMIN5_Q8TEQ6_341_IVFNLCPLQTEDDK (UniProt Q8TEQ6) | 0.146
GEMIN5_Q8TEQ6_676_EEPLCNFR (UniProt Q8TEQ6) | 0.0316
GAPDH_P04406_152_IISNASCTTNCLAPLAK (UniProt P04406) | -0.00264
GIT1_Q9Y2X7_35_GVLVCDECCSVHR (UniProt Q9Y2X7) | 0.131
GAPVD1_Q14C86_1160_NGLPDHTDPEDNEIVCFLK (UniProt Q14C86) | -0.084
GCFC2_P16383_595_VILEEHSTCENEVSK (UniProt P16383) | 0.0251
GARS_P41250_616_CSVLPLSQNQEFMPFVK (UniProt P41250) | 0.0543
GATAD2A_Q86YP4_420_EPYMCAQCK (UniProt Q86YP4) | 0.0109
GIPC1_O14908_100_LPTAEVMFCTLNTHK (UniProt O14908) | 0.231

Same assay, conditions: 50 µM; THP-1; incubation time: 4 h

Target | probe-labelled cysteine peptide fold change
GEMIN5_Q8TEQ6_1477_SHFPGCLAQEMQQQAQELLQK (UniProt Q8TEQ6) | 0.14
GANAB_Q14697_423_DEADVLEVDQGFDDHNLPCDVIWLDIEHADGKR (UniProt Q14697) | -0.111
GHDC_Q8N2G8_377_VVGAYNQCPVVR (UniProt Q8N2G8) | -0.0199
GCN1_Q92616_648_VLQEALCVISGVPGLK (UniProt Q92616) | -0.0634
GALNT1_Q10472_482_TDDLCLDVSK (UniProt Q10472) | 0.00641
GFPT1_Q06210_435_DDVCFFLSQSGETADTLMGLR (UniProt Q06210) | 0.503
GALK2_Q01415_407_LTGAGWGGCTVSMVPADKLPSFLANVHK (UniProt Q01415) | -0.235
GFM2_Q969S9_406_IYSGTIKPQLAIHNINGNCTER (UniProt Q969S9) | -0.175
GALK1_P51570_351_MTGGGFGGCTVTLLEASAAPHAMR (UniProt P51570) | -0.0268
GCN1_Q92616_1527_AGSVELLGAMAYCAPK (UniProt Q92616) | 0.15
GALK2_Q01415_379_DMYECSCPELDQLVDICR (UniProt Q01415) | 0.282
GBF1_Q92538_1414_DAAHITPDNFELCVK (UniProt Q92538) | 0.38
GALNT1_Q10472_214_GQVITFLDAHCECTVGWLEPLLAR (UniProt Q10472) | 0.101
GEMIN5_Q8TEQ6_1421_NEPEVEAEQPLCSSQSQCK (UniProt Q8TEQ6) | 0.0469
GATAD1_Q8WUU5_223_KMEYLEFVCHAPSEYFK (UniProt Q8WUU5) | 0.0273
GEMIN7_Q9H840_44_APLRPEVPEIQECPIAQESLESQEQR (UniProt Q9H840) | -0.0042
GAPDH_P04406_152+156_IISNASCTTNCLAPLAK (UniProt P04406) | 0.0175
GIT1_Q9Y2X7_674_HDSFVPCSEK (UniProt Q9Y2X7) | -0.235
GATC_O43716_99_SDNVVEGNCADELLQNSHR (UniProt O43716) | -0.276

Target | probe-labelled cysteine peptide fold change
GFI1_Q99684_342+345_SSTLSTHLLIHSDTRPYPCQYCGK (UniProt Q99684) | 0.0418
GCN1_Q92616_1781_FTPYVGPIIPCILK (UniProt Q92616) | 0.17
GALK1_P51570_243_RQCEEVAR (UniProt P51570) | -0.0515
GIGYF2_Q6Y7W6_573_RACDESFQPLGDIMK (UniProt Q6Y7W6) | 0.0298
GEN1_Q17RS7_634_SEVESELSAIPDGFENIPEQLSCESER (UniProt Q17RS7) | 0.0681
GBE1_Q04446_309_NSADGLNMFDGTDSCYFHSGPR (UniProt Q04446) | -0.0355
GEMIN4_P57678_382_QVVSELAECVR (UniProt P57678) | -0.055
GALNT1_Q10472_482_EIRTDDLCLDVSK (UniProt Q10472) | -0.0133
GFI1_Q99684_398_HTGFKPFGCDLCGK (UniProt Q99684) | 0.0682
GBE1_Q04446_88_CADGGLYCK (UniProt Q04446) | 0.0761
GEMIN5_Q8TEQ6_341_IVFNLCPLQTEDDK (UniProt Q8TEQ6) | 0.144
GEMIN5_Q8TEQ6_676_EEPLCNFR (UniProt Q8TEQ6) | 0.0281
GAPDH_P04406_152_IISNASCTTNCLAPLAK (UniProt P04406) | 0.0221
GIT1_Q9Y2X7_35_GVLVCDECCSVHR (UniProt Q9Y2X7) | -0.046
GAPVD1_Q14C86_1160_NGLPDHTDPEDNEIVCFLK (UniProt Q14C86) | -0.00899
GCFC2_P16383_595_VILEEHSTCENEVSK (UniProt P16383) | -0.211
GARS_P41250_616_CSVLPLSQNQEFMPFVK (UniProt P41250) | -0.0554
GATAD2A_Q86YP4_420_EPYMCAQCK (UniProt Q86YP4) | -0.0417
GIPC1_O14908_100_LPTAEVMFCTLNTHK (UniProt O14908) | 0.118
